Values from PubChem BioAssay AID504784 (Drosophila RNAi Screening Center, 2011).
Test: 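Search for regulators of lipid droplet storage in oleate-fed fly cells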 (primary screen). System: Drosophila Kc167 embryonic cells. Knock-down reagent: long dsRNA against Drosophila genes, about 250 ng dsRNA per well. Timing: 4 days. Treatment: cells fed 400 µM oleic acid bound to BSA. Detection: 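Cells imaged and segmented; ratio of lipid droplet area to nuclear area, log-transformed, then normalised as a B-score over the screen; higher means more stored lipid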. Direction: droplet/nuclear area B-score: higher = more stored lipid (overstorage).
The screen tested about 17,000 reagents; shown is an unselected part of those with a known target gene and a result. 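Each column is one replicate's B-score; the combined score over replicates was not deposited, so single values may mislead.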 A plus sign joins genes that one reagent is predicted to hit. Not all columns of the deposit are shown.

| gene | dsRNA | droplet/nuclear area B-score, replicate 1 |
| --- | --- | --- |
| CG9010 | DRSC07320 | 0.0247 |
| clt | DRSC04621 | 0.00885 |
| CG31689 | DRSC00734 | 1.67 |
| tfc | DRSC07953 | 0.931 |
| tfc | DRSC07954 | -2.49 |
| tfc | DRSC08626 | 1.86 |
| tfc | DRSC21704 | 0.552 |
| Cec2 | DRSC21885 | 0.0256 |
| alpha-Est10 | DRSC12613 | 0.000326 |
| Phae1 | DRSC02554 | 1.05 |
| MICU1 | DRSC02752 | -0.929 |
| grp + CG31782 (retired record) | DRSC03541 | -0.834 |
| shg | DRSC04714 | -0.132 |
| CG13895 | DRSC08365 | -0.0398 |
| Srg3 | DRSC08984 | -0.169 |
| Srg3 | DRSC10178 | -0.0108 |
| ldd | DRSC20558 | 0.403 |
| ldd | DRSC22696 | 0.0111 |
| p | DRSC16560 | 0.739 |
| Nos | DRSC03381 | 0.403 |
| Muc14A | DRSC23264 | -1.87 |
| CG5122 | DRSC02816 | 0.156 |
| EloB | DRSC16663 | -0.482 |
| CG14316 | DRSC14795 | 1.54 |
| CG10863 | DRSC08145 | 2.53 |
| CG15772 | DRSC18078 | 2.29 |
| CG34205 | DRSC04149 | 0.0487 |
| CG34205 | DRSC22823 | 7.03 |
| CG11696 | DRSC19417 | 0.00506 |
| sns | DRSC06423 | 2.52 |
| sns | DRSC07687 | 0.822 |
| sns | DRSC07688 | 0.261 |
| sns | DRSC07689 | -1.27 |
| sns | DRSC07691 | -1.71 |
| sns | DRSC07692 | -0.824 |
| CG10013 | DRSC14175 | 0.565 |
| VhaAC45 | DRSC07058 | -0.62 |
| CG10417 | DRSC04846 | -0.701 |

Continued, starting with the last 6 of the part before.
| gene | dsRNA | droplet/nuclear area B-score, replicate 1 |
| --- | --- | --- |
| sns | DRSC07689 | -1.27 |
| sns | DRSC07691 | -1.71 |
| sns | DRSC07692 | -0.824 |
| CG10013 | DRSC14175 | 0.565 |
| VhaAC45 | DRSC07058 | -0.62 |
| CG10417 | DRSC04846 | -0.701 |
| CG15870 | DRSC06588 | 0.221 |
| ry | DRSC17048 | 0.624 |
| TppII | DRSC07565 | 1.55 |
| CG13871 | DRSC06430 | 0.105 |
| mRpL3 | DRSC20100 | 0.554 |
| CkIIalpha-i1 | DRSC11115 | 0.612 |
| Ddc | DRSC03314 | -1.29 |
| CG32512 | DRSC20519 | -0.447 |
| CG32512 | DRSC20551 | -3.28 |
| CG32512 | DRSC21401 | -0.308 |
| Peritrophin-A | DRSC20570 | 0.00917 |
| CG33298 | DRSC02210 | -0.242 |
| CG33298 | DRSC02672 | 1.69 |
| CG33159 | DRSC08199 | -0.218 |
| CG33969 + fbl | DRSC11886 | 0.045 |
| gdrd | DRSC10020 | -0.127 |
| Ance-5 | DRSC04055 | -0.475 |
| Argp | DRSC16510 | -0.454 |
| Syt7 | DRSC17130 | 0.148 |
| Syt7 | DRSC17159 | 0.0378 |
| CG6424 | DRSC05936 | 0.155 |
| CG7646 | DRSC11232 | -0.105 |
| MED4 | DRSC11014 | 0.457 |
| jp | DRSC02213 | 1.35 |
| jp | DRSC02744 | 2.95 |
| Irp-1A | DRSC16719 | -1.38 |
| mRpS28 | DRSC06939 | 0.668 |
| Cp190 | DRSC16607 | -0.00357 |
| CG16734 | DRSC15143 | -0.313 |
| CG8065 | DRSC10959 | 0.4 |
| CG31869 | DRSC02582 | -1.01 |
| CG31869 | DRSC02674 | 0.869 |
| CG42566 | DRSC03949 | -0.474 |
| Vha100-1 | DRSC14148 | 0.165 |
| CG6770 | DRSC02992 | 5.18 |
| Or1a | DRSC18689 | 1.78 |
| inaF-A | DRSC19660 | -0.101 |
| mrva | DRSC11009 | -1.66 |
| mrva | DRSC21842 | -1.49 |
| kappaB-Ras + CG30503 | DRSC06619 | 0.0955 |
| kappaB-Ras + CG30503 | DRSC07636 | -0.225 |
| CG10470 | DRSC02061 | 0.123 |
| dom | DRSC04558 | -0.312 |
| dom | DRSC04559 | 1.59 |
| CG11334 | DRSC14066 | 0.485 |
| CG11334 | DRSC14302 | 0.0427 |
